Results published in the supplement of paper PMC12889115.
Some of the results follow. Values are raw readings; no control value is given beside them.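 Primary screen: polymyxin B was added at a level permeabilizing Salmonella outer membranes while sparing inner membranes. DMSO wells, both with and without polymyxin B, established maximum growth. Plate-to-plate variation meant each plate was ranked on its own, and the lowest-OD600 compounds were selected as hits.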

System: Salmonella enterica serovar Typhimurium SL1344
Assay: bacterial growth OD600 after 18 h with compound and polymyxin B; higher = more bacterial growth (less inhibition)
Conditions: 50 µM, Mueller-Hinton broth

SMILES | bacterial growth OD600 (polymyxin B 0.75 µg/mL) | bacterial growth OD600 (polymyxin B 1 µg/mL)
OCc1ccc(CN2CCCC(CCc3ccccc3)C2)o1 (configuration not stated) | 0.851 | 
CCn1c(-c2cccnc2)nc2cc(NC(=O)COC)cc(C(=O)N3CCCC3c3nccs3)c21 (configuration not stated) | 0.854 | 
CN(Cc1nc(Cc2cccc(C(F)(F)F)c2)no1)C(C1CC1)C1CC1 |  | 1
CCOC(=O)C1(Cc2ccccc2C)CCCN(C(=O)Nc2ccccc2)C1 (configuration not stated) |  | 0.106
COC(=O)[C@@H](Nc1ccc(-c2nc(C3CC3)no2)cn1)c1ccccc1 | 0.362 | 
CC1CN(C(=O)c2coc(COc3cccc(C(F)(F)F)c3)n2)CCN1C (configuration not stated) |  | 0.989
CC(=O)c1cccc(OCc2cc(C(=O)N3CCN4CCCC4C3)n[nH]2)c1 (configuration not stated) |  | 0.885
COc1ccc(CN2CCCC(CCC(=O)NCc3ccc(OC)cc3OC)C2)c(F)c1 (configuration not stated) |  | 1.15
O=C(c1ccc(N2CCC(NCC3COc4ccccc4O3)CC2)cc1)N1CCOCC1 (configuration not stated) | 0.91 | 
COCCC(=O)N1CCC(Oc2ccc(C(=O)N(C)C3CCCCC3)cc2)CC1 |  | 1.21
COc1cccc(CC2CN(C(=O)c3cc4ccccc4o3)CCO2)c1 (configuration not stated) | 0.47 | 
COc1cc(OC)c(OC)cc1CN1CCOc2ccc(C(O)Cc3ccccc3)cc2C1 (configuration not stated) | 0.007 | 
O=C(CCC1CCCN(Cc2c(F)ccc(F)c2F)C1)N1CCCC1 (configuration not stated) |  | 0.854
C[C@@H]1CN(c2nncc(-c3ccc4ccccc4c3)n2)C[C@H](C)O1 |  | 1.02
COc1ccc(CCCN2C(=O)O[C@@H]3CN(c4cc(C)nc(N)n4)C[C@@H]32)cc1 | 0.806 | 
COc1cccc(OCc2nc(C(=O)N[C@@H]3C[C@H]3c3ccccc3)co2)c1 |  | 0.927

Quoted at random: three compounds from above
SMILES | bacterial growth OD600 (polymyxin B 0.75 µg/mL) | bacterial growth OD600 (polymyxin B 1 µg/mL)
CC(=O)c1cccc(OCc2cc(C(=O)N3CCN4CCCC4C3)n[nH]2)c1 (configuration not stated) |  | 0.885
COc1cccc(OCc2nc(C(=O)N[C@@H]3C[C@H]3c3ccccc3)co2)c1 |  | 0.927
COC(=O)[C@@H](Nc1ccc(-c2nc(C3CC3)no2)cn1)c1ccccc1 | 0.362 | 

Further entries:

SMILES | bacterial growth OD600 (polymyxin B 0.75 µg/mL) | bacterial growth OD600 (polymyxin B 1 µg/mL)
CN(C(=O)c1ccn(C)n1)C(Cc1ccccc1)C1CCN(Cc2cc(Cl)ccc2O)CC1 (configuration not stated) | 0.675 | 
O=C(CCc1ccccc1)Nc1ccnn1C1CCN(C(=O)c2ccco2)CC1 |  | 0.917
COCCOC1CCN(C(=O)c2cn(C(c3ccccc3)c3ccccc3)nn2)CC1 |  | 0.873
Cc1cc(=O)c(C(=O)N2CCC(C3CCN(CC(C)(C)C)C3)CC2)c[nH]1 (configuration not stated) |  | 0.998
Cc1oc(-c2ccc(NC(=O)Cc3ccccc3)cc2)nc1CNC(=O)C1(c2ccccc2)CC1 | 0.963 | 
CCOc1ccc(CNC(C)c2cnn(-c3ccc(F)cc3F)c2C)cc1CO (configuration not stated) | 0.852 | 
O=C(CCC1CCCN(C(=O)Cc2cccnc2)C1)NCc1ccccc1F (configuration not stated) | 0.8 | 
Cc1ccccc1CNc1nc2nonc2nc1NC1CC1 | 0.04 | 
CN(C)S(=O)(=O)N1CCc2ccc(NC(=O)Cc3ccccc3F)cc2C1 |  | 1.13
COc1ccc(CNC(=O)CCC2CCCN(Cc3c(F)ccc(F)c3F)C2)c(OC)c1 (configuration not stated) |  | 1.14
Cc1nc2ccccc2n1Cc1cc(C(=O)NCCC(C)C)no1 |  | 1.23
Cc1cc(-c2ccnc(-n3ncc(C(=O)N4CCN(C(C)C)CC4)c3C)n2)c(C)s1 | 0.823 | 
Cc1cnc(C)c(N2CCN(C(=O)C3CCC(=O)N(CCc4cccc(F)c4)C3)CC2)n1 (configuration not stated) |  | 1.09
COc1ccc(-c2noc(CN(Cc3ccccc3)CC3CC3)n2)c(OC)c1OC |  | 0.962
COc1ccc(CN2C(=O)O[C@@H]3CN(C(C)C)C[C@@H]32)cc1OC |  | 1.17
O=C(Nc1ccc(Oc2cccnc2)cc1)C1CCCCN1C1CCCC1 (configuration not stated) |  | 0.851
